Data source: PubChem BioAssay AID1671195 (Yale University, 2021)
The whole screen tested about 22,000 reagents; shown is a random part of them. About 1,510 of them (6.9%) were called active. 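Active includes knockdowns raising or lowering LDL uptake; positive z-scores mean more uptake, negative mean less.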

Screen: 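Regulators of LDL receptor activity judged by labelled LDL uptake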 (primary screen)
System: human Huh7 hepatoma cells
Knock-down reagent: siRNA pool against human genes, 18 nM
Duration: about 2 to 2.5 days of knockdown, then 8 h LDL uptake
Challenge: DiI-labelled LDL at 30 µg/ml for 8 h, in lipoprotein-deficient serum medium
Measurement: 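Per-cell DiI-LDL intensity by automated imaging; well means scaled to the plate median and given as a robust z-score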
Direction: robust z-score: higher = more LDL uptake after knockdown
Hit rule: 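Active when two or more replicates show a robust z-score above 2 or below -2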

How did the screen score ARHGAP15?
robust z-score, replicate 1: -0.591; robust z-score, replicate 2: -0.817; robust z-score, replicate 3: 2.68; Outcome: inactive

For CFHR2, what does the deposit list?
robust z-score, replicate 1: 0.867; robust z-score, replicate 2: -0.948; robust z-score, replicate 3: 0.29; Outcome: inactive

Which result is listed for LOC387762 (retired record)?
robust z-score, replicate 1: -0.292; robust z-score, replicate 2: -0.46; robust z-score, replicate 3: -0.621; Outcome: inactive

How did the screen score LOC400047 (retired record)?
robust z-score, replicate 1: -0.133; robust z-score, replicate 2: 0.886; robust z-score, replicate 3: -0.0579; Outcome: inactive

Which result is listed for NCR3?
robust z-score, replicate 1: 1.08; robust z-score, replicate 2: 1.44; robust z-score, replicate 3: 1.66; Outcome: inactive

How did the screen score NEUROD6?
robust z-score, replicate 1: 1.36; robust z-score, replicate 2: 1.33; robust z-score, replicate 3: 1.71; Outcome: inactive

Which result is listed for LOC401062 (retired record)?
robust z-score, replicate 1: -1.22; robust z-score, replicate 2: -0.948; robust z-score, replicate 3: -0.983; Outcome: inactive

Which result is listed for HS3ST1?
robust z-score, replicate 1: -0.949; robust z-score, replicate 2: -0.89; robust z-score, replicate 3: -0.832; Outcome: inactive

How did the screen score NOL6?
robust z-score, replicate 1: 0.0715; robust z-score, replicate 2: -0.691; robust z-score, replicate 3: 0.223; Outcome: inactive

How did the screen score LINC02232?
robust z-score, replicate 1: -0.348; robust z-score, replicate 2: -0.564; robust z-score, replicate 3: -0.455; Outcome: inactive

For ZNF442, what does the deposit list?
robust z-score, replicate 1: -0.754; robust z-score, replicate 2: -0.544; robust z-score, replicate 3: -0.632; Outcome: inactive

What did the screen give for RNF5?
robust z-score, replicate 1: -0.441; robust z-score, replicate 2: -0.572; robust z-score, replicate 3: -0.189; Outcome: inactive

What is on record for SUSD6?
robust z-score, replicate 1: 1.23; robust z-score, replicate 2: -0.481; robust z-score, replicate 3: -0.364; Outcome: inactive

Which result is listed for CYB561D1?
robust z-score, replicate 1: 1.9; robust z-score, replicate 2: 1.68; robust z-score, replicate 3: 2.1; Outcome: active

For LPO, how do the results read?
robust z-score, replicate 1: -0.98; robust z-score, replicate 2: -0.765; robust z-score, replicate 3: -1.2; Outcome: inactive

What is on record for NQO1?
robust z-score, replicate 1: -0.126; robust z-score, replicate 2: 0.158; robust z-score, replicate 3: 0.249; Outcome: inactive

What is on record for LOC201484 (retired record)?
robust z-score, replicate 1: 0.376; robust z-score, replicate 2: 0.27; robust z-score, replicate 3: -0.392; Outcome: inactive

What did the screen give for LAMB4?
robust z-score, replicate 1: 0.637; robust z-score, replicate 2: -1.03; robust z-score, replicate 3: -0.169; Outcome: inactive

What is on record for GMPPA?
robust z-score, replicate 1: -1.09; robust z-score, replicate 2: 0.798; robust z-score, replicate 3: 0.442; Outcome: inactive

Which result is listed for GJA1?
robust z-score, replicate 1: -0.618; robust z-score, replicate 2: -0.557; robust z-score, replicate 3: -0.145; Outcome: inactive

With TLCD5, what was measured?
robust z-score, replicate 1: -0.042; robust z-score, replicate 2: -0.192; robust z-score, replicate 3: -0.282; Outcome: inactive

What did the screen give for LOC387830 (retired record)?
robust z-score, replicate 1: -0.494; robust z-score, replicate 2: -0.268; robust z-score, replicate 3: -0.127; Outcome: inactive

For NHS, what does the deposit list?
robust z-score, replicate 1: 1.18; robust z-score, replicate 2: 1.66; robust z-score, replicate 3: 1.46; Outcome: inactive

What is on record for LEUTX?
robust z-score, replicate 1: 1.48; robust z-score, replicate 2: 2.28; robust z-score, replicate 3: 1.78; Outcome: inactive

Records above marked active, once more:
CYB561D1 | robust z-score, replicate 1: 1.9; robust z-score, replicate 2: 1.68; robust z-score, replicate 3: 2.1; Outcome: active
